Assay in all cases: 7 day pretreatment + 4-day co-treatment combination model (Cell Titer Glo)
One test deals with MM1.S. The note with it: Homo sapiens, 96 h, read-out: 4-day IC50.
A further test concerns KMS-28-BM. The note with it: 96 h, read-out: 4-day IC50.
The test system of the next test is U266. The note with it: Homo sapiens, U-266, 96 h, read-out: 4-day IC50.
Another test deals with L-363. The note with it: Homo sapiens, L-363, 96 h, read-out: 4-day IC50.

The values below come from patent publication US20240293418A1, “COMBINATION THERAPY FOR TREATING CANCER” (Epizyme, Inc., priority 2016, published 2024).

Take `O=C(CCCCCCC(=O)Nc1ccccc1)NO` [Vorinostat, vorinostat]: the concentration for half-maximal inhibition (IC50) in the test with MM1.S worked out at 720 nM; in the test with KMS-28-BM it was 394 nM; in the test on U266 it was 1000 nM; in the test on L-363, 563 nM.

What is called IC50 is the concentration at which inhibition is half-maximal.
